According to article PMC10681723:
No constants are given. Whether binding was seen depends on the method and setting. Binding seen in cells or lysates may run through a third protein. These calls come from enrichment with a bait or labelling near it, and not all partners need be listed.

The chains behind the UniProt entries cited, without tags or fusion partners.
UniProt P32558: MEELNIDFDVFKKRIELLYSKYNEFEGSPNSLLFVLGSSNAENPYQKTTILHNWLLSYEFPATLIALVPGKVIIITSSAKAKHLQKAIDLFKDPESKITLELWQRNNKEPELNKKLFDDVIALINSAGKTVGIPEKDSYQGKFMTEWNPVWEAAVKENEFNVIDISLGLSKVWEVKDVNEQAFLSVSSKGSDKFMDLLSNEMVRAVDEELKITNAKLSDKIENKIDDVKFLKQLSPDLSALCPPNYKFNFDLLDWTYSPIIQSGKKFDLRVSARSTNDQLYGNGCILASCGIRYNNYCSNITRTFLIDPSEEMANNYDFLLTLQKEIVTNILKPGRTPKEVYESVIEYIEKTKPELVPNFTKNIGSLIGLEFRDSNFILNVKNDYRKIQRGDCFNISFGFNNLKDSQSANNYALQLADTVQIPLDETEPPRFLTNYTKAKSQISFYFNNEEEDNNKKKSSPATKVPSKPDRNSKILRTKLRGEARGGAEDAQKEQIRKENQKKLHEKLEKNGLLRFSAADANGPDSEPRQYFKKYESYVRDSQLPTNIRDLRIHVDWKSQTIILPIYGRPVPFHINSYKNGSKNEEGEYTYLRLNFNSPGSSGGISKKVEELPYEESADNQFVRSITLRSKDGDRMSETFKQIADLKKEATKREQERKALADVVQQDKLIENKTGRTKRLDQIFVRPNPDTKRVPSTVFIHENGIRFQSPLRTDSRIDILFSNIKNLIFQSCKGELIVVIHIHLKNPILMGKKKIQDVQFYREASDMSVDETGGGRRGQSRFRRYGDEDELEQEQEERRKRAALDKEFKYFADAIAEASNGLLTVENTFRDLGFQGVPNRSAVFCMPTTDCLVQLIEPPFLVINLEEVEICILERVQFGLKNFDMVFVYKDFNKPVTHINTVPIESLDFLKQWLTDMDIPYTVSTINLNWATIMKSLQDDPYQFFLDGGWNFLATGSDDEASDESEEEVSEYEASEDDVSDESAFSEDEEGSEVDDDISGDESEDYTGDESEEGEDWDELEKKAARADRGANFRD
UniProt P53091: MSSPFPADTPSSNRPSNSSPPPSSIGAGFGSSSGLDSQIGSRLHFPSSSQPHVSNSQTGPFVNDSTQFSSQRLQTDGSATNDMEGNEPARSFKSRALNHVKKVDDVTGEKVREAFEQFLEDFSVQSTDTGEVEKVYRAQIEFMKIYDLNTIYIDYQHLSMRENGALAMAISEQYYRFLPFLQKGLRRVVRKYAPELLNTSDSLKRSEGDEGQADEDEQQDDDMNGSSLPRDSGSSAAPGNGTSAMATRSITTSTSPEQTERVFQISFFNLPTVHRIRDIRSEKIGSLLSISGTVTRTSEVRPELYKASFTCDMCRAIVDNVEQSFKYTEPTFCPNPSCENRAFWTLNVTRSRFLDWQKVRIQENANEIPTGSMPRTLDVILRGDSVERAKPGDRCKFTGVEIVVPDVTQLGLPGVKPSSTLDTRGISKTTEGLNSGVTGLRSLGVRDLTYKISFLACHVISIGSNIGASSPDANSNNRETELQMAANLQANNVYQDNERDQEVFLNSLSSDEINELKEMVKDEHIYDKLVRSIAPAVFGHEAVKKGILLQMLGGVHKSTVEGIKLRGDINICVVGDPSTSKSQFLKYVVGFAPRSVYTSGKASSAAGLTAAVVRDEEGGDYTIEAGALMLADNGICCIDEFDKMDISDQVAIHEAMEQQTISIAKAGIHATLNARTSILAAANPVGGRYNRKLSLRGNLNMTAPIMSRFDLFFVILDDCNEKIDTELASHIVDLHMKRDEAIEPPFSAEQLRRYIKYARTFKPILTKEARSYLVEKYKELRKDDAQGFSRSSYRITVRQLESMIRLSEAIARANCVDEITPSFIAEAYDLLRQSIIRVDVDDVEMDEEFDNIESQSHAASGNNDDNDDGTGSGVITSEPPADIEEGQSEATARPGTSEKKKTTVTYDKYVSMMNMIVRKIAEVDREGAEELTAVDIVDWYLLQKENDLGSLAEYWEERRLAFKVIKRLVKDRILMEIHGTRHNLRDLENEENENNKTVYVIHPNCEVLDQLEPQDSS
UniProt P29469: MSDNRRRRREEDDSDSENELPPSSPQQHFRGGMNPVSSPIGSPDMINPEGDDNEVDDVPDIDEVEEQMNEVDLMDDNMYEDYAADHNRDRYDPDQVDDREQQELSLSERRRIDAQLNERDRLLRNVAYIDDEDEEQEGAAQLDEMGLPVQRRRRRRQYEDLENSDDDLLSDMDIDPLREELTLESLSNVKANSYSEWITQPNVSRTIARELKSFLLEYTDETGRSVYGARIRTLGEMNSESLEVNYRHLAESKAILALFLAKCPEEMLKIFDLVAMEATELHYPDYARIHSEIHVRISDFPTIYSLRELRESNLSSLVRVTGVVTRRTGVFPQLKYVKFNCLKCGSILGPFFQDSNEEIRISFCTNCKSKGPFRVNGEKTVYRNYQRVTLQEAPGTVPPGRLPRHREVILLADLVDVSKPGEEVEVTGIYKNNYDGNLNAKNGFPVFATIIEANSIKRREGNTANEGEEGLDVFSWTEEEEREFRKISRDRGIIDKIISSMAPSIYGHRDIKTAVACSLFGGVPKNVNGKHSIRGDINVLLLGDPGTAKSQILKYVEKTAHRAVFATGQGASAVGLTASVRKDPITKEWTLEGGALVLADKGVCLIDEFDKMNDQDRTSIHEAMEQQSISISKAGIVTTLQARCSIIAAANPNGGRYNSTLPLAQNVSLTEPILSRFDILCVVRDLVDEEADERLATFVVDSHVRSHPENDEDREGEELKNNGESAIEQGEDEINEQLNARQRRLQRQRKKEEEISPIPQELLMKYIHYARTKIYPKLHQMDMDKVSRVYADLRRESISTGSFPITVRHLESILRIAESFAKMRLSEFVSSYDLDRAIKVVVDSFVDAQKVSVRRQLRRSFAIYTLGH
UniProt P24279: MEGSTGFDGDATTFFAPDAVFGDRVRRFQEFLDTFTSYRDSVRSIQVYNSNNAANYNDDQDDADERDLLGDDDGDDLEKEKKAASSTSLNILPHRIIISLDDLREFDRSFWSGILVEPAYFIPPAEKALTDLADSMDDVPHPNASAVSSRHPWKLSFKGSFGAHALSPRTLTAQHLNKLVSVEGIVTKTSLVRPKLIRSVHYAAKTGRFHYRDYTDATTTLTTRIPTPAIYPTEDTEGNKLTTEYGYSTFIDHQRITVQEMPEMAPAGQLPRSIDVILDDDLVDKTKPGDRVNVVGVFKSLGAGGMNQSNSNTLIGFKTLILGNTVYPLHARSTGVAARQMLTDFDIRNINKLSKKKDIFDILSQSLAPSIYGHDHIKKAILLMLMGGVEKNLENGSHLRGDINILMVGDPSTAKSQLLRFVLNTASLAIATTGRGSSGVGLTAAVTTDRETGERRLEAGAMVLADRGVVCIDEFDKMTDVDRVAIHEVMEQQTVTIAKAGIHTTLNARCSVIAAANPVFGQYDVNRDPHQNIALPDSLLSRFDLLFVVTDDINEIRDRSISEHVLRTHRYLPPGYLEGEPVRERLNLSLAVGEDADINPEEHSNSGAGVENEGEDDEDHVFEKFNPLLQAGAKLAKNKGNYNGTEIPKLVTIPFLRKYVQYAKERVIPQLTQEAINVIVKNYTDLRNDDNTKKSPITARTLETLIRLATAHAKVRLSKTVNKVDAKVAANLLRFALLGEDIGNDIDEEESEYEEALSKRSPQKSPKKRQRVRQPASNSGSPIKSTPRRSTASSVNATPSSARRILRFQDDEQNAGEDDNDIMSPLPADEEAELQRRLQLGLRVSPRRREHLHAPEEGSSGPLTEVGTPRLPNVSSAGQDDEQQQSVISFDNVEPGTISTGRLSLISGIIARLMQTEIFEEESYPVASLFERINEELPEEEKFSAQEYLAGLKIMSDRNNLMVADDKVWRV

The substances below were run against TAP-tagged Spt16 (Spt16-TAP), wild type (budding yeast (S. cerevisiae)) (UniProt P32558) (assay: affinity purification with mass spectrometry; tandem affinity purification of wild-type Spt16 or Spt16-ΔN from yeast cells, SDS-PAGE, label-free quantitative mass spectrometry, n = 3).

binding, binds:
Mcm6 (from UniProt P53091 1-1017)
Mcm2 (from UniProt P29469 1-868)
Mcm3 (from UniProt P24279 1-971)
